Reference: article PMC8287878
Results are given in words; binding and its absence hold for the method and conditions named. Binding seen in cells or lysates may run through a third protein. Some binding calls cover weakened binding; strength is not graded here.

Chains of the proteins cited; added tags and fusions are not shown. Lines headed by an entry give the natural chain unless they say otherwise; changes in a name come on top. Residues count along the entry.
UniProt P13597, residues 28-537: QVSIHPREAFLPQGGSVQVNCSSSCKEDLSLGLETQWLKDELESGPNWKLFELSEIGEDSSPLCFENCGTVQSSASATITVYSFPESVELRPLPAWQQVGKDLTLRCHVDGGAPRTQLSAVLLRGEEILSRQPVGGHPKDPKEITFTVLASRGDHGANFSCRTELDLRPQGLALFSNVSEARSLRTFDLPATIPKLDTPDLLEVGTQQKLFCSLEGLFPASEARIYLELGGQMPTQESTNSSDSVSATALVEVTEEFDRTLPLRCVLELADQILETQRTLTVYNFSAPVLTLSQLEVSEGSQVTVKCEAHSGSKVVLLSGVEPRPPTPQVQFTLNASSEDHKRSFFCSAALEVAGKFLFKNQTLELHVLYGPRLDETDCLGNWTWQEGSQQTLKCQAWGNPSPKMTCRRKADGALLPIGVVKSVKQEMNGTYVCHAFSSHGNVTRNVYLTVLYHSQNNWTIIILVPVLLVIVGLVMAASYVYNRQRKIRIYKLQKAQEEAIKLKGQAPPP
UniProt P24063: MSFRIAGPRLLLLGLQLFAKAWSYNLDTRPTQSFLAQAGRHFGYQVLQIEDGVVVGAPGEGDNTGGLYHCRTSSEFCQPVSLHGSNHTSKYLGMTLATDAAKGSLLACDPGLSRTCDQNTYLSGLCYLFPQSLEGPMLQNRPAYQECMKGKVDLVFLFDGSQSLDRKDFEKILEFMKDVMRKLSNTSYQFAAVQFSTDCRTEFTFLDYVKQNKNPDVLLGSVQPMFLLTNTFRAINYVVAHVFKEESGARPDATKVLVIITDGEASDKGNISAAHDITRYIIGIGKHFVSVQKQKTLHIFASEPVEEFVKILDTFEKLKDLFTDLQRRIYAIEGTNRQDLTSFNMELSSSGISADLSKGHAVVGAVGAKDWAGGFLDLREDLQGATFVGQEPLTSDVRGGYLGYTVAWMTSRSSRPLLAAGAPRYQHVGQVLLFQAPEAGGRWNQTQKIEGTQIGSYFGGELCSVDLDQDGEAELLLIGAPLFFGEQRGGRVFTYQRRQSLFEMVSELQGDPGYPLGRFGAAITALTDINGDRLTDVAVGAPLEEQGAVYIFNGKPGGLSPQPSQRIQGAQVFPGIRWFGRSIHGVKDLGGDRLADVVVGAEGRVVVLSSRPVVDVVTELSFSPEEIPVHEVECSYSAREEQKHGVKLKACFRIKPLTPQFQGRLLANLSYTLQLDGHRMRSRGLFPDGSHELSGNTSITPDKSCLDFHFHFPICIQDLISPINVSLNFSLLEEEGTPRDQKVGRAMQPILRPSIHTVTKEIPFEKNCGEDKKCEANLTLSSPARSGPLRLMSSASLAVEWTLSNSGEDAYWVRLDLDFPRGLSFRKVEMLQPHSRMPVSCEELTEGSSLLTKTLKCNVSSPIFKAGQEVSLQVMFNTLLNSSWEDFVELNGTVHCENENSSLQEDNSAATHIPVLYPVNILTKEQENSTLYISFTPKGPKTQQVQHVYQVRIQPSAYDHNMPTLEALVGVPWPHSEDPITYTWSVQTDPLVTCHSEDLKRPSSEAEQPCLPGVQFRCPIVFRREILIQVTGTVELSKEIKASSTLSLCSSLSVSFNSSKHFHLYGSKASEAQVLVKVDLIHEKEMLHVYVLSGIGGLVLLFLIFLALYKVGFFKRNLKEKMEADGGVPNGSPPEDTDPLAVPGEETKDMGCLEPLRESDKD
UniProt P05555: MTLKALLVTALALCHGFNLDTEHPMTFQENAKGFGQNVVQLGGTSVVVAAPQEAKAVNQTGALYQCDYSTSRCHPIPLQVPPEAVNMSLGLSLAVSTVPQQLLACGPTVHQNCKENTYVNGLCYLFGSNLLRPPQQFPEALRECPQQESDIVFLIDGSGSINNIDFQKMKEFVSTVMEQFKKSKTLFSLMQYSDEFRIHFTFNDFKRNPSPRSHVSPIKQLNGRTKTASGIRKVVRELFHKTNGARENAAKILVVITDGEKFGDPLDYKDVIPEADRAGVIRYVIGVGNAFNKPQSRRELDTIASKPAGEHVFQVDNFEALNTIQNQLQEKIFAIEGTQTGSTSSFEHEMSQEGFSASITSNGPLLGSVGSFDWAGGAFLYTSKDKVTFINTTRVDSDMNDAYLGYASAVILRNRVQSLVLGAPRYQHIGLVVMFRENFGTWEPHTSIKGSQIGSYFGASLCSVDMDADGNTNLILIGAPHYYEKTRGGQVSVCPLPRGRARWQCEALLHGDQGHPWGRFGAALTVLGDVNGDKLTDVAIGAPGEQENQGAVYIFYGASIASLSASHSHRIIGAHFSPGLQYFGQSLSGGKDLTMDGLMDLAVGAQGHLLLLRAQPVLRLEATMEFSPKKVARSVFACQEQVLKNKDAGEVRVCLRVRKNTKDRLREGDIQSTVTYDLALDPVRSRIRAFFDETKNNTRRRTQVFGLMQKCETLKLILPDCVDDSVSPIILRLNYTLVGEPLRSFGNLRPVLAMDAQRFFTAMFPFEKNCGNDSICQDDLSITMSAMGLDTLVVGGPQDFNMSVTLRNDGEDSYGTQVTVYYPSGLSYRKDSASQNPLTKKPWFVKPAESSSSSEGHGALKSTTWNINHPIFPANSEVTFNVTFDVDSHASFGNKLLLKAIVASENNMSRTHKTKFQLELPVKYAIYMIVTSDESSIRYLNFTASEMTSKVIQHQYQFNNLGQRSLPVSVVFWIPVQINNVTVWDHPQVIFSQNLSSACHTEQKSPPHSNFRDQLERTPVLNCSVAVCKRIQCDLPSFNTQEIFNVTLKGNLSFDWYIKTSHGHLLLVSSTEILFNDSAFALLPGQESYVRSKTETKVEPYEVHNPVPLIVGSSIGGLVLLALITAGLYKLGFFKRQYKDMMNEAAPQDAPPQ

Target: Intercellular adhesion molecule-1 (mouse (endogenous in brain tissue)) (UniProt P13597)
Assay: co-IP; mouse brain tissue lysates (WT, uninjured and 48 h after 10 and 20 psi FPI); 500 ug total protein with 10 ug anti-ICAM-1 antibody overnight at 4°C, Protein A/G magnetic beads 1 h (Pierce Classic Magnetic IP/Co-IP kit); Western blots with ICAM-1, LFA-1 and Mac-1 antibodies; anti-IgG as negative control

Row | Substance | binding
1 | leukocyte function-associated antigen (LFA)-1 (from UniProt P24063 24-1162; P11835 24-771) (complex) | binds
2 | macrophage-1 antigen (from UniProt P05555 17-1153; P11835 24-771) (complex) | binds
